Results are given in words; binding and its absence hold for the method and conditions named. Some entries that bind do so weakly or less than the wild type.
How the values were obtained:
[1] = target: solubilized PHF (paired helical filament Tau) from human AD brain (human) (UniProt P10636); experiment: confocal imaging of fluorescently labeled PHF and antibody in primary neuron cultures
[2] = target: solubilized PHF (paired helical filament Tau) from human AD brain (human) (UniProt P10636); experiment: dot blot
[3] = target: solubilized PHF (paired helical filament Tau) from human AD brain (human) (UniProt P10636); experiment: confocal imaging of fluorescently labeled PHF and antibody (FIG. 10)
[4] = target: solubilized PHF (paired helical filament Tau) from human AD brain (human) (UniProt P10636); experiment: confocal imaging of fluorescently labeled PHF (10 µg/mL) and labeled Antibody 4E6G7 (1 µg/mL) on primary neurons, co-localization
[5] = target: sarkosyl soluble tau fraction from human AD brain (human) (UniProt P10636); experiment: dot blot of AD brain tau fractions
[6] = target: solubilized PHF (paired helical filament Tau) from human AD brain (human) (UniProt P10636); experiment: dot blot of AD brain tau fractions
[7] = target: sarkosyl insoluble tau fraction from human AD brain (human) (UniProt P10636); experiment: ELISA, plate coated with sarkosyl insoluble tau from AD brain (1 µg/well), serial antibody dilutions [Panel E]
[8] = target: sarkosyl soluble tau fraction from human AD brain (human) (UniProt P10636); experiment: dot blot of AD brain tau fractions (FIG. 16, Panel A)
[9] = target: solubilized PHF (paired helical filament Tau) from human AD brain (human) (UniProt P10636); experiment: as above
[10] = target: sarkosyl insoluble tau fraction from human AD brain (human) (UniProt P10636); experiment: dot blot of tau fractions from AD brain on nitrocellulose, antibody as primary [Panel A]
[11] = target: solubilized PHF (paired helical filament Tau) from human AD brain (human) (UniProt P10636); experiment: as above
[12] = target: solubilized PHF (paired helical filament Tau) from human AD brain (human) (UniProt P10636); experiment: confocal imaging, co-incubation in neuron cultures
[13] = target: sarkosyl soluble tau fraction from human AD brain (human) (UniProt P10636); experiment: ELISA, plate coated with sarkosyl soluble tau (1 µg/well), antibody dilutions
[14] = target: solubilized PHF (paired helical filament Tau) from human AD brain (human) (UniProt P10636); experiment: dot blot and ELISA

By UniProt entry, the sequences of proteins in these tests, tags left out. Where a name states a change or a piece, a line headed by the entry shows the natural chain unless it says otherwise. Chains listed by the source or under a name are the forms on record and can include a tag or linker.
solubilized PHF (paired helical filament Tau) from human AD brain (P10636, form named): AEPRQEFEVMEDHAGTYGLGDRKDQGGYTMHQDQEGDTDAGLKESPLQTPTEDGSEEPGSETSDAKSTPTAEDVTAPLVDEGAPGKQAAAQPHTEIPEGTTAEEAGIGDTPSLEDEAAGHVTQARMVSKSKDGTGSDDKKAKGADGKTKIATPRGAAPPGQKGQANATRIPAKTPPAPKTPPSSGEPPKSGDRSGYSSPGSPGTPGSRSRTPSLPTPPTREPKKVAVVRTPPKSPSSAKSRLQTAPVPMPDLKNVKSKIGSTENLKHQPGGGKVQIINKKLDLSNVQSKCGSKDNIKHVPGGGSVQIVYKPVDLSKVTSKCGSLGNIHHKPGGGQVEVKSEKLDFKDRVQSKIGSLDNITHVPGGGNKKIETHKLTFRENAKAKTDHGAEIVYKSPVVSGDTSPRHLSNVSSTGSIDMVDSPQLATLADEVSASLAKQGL

Measured: binding

B1: Antibody 4E6G7 (antibody, V domains shown)
VH: VQLQQSGAELVQPGASVKLSCTASGFNIKDTSMHWVRQRPEQGLEWIGRIAPANGNTKYDPKFQGKATITTDTSSNTAYLQLSSLTSEDTAVYYCSGSGNYDWGQGTTLTVS
VL: DIQMNQSPSSLSASLGDTITISCHASQNINVWLSWYQQKPGNIPKLLIFEASTLYTGVPSRFSGSGSGTGFTLTISSLQPEDIATYYCQQGQSYPWTFGGGTKLEIKR
binds: [1] | [2] | [3] | [4] | [5] | [6] | [7] | [8] | [9] | [10] | [11] | [12] | [13] | [14]

Source: patent US20180312608A1
